# Data: the supplement of paper PMC4604168 (melanoma cell lines)
# The other results are listed elsewhere or left out. Single values are uncertain, as repeats are few or missing.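 Imaging used 1,536-well plates; nuclei positive for cleaved PARP by antibody were divided by total DNA-stained nuclei to yield the apoptosis fraction. Doses for screening kept most cells viable, and cell lines differ markedly in resting and induced cleaved-PARP levels.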
# System: CBRC016 (line from a melanoma biopsy)
# Assay: cleaved PARP positive nuclei fraction relative to DMSO control; melanoma cells; higher = more apoptosis
# Conditions: library dose: low library concentration; 72 h
row,Structure (SMILES),cleaved PARP positive nuclei fraction
1,"COc1cc([C@@H]2c3cc4c(cc3[C@@H](O[C@@H]3O[C@@H]5CO[C@@H](C)O[C@H]5[C@H](O)[C@H]3O)[C@H]3COC(=O)[C@H]23)OCO4)cc(OC)c1O [etoposide] + CC(C)CCN1c2nc(Nc3cc(F)c(O)c(F)c3)ncc2N(C)C(=O)C1C [BID1870] (first compound 0.02 µM, partner dose 0.2 µM)",121%
2,"Cc1ccc(Nc2nccc(N(C)c3ccc4c(C)n(C)nc4c3)n2)cc1S(N)(=O)=O [Pazopanib] + CCN(CC)CCCCNc1ncc2cc(-c3cc(OC)cc(OC)c3)c(NC(=O)NC(C)(C)C)nc2n1 [PD173074] (first compound 0.4 µM, partner dose 0.1 µM)",57.7%
3,"Cc1cn(-c2cc(NC(=O)c3ccc(C)c(Nc4nccc(-c5cccnc5)n4)c3)cc(C(F)(F)F)c2)cn1 [nilotinib] + COc1ccc2c(c1)CCC1C2CCC2(C)C(NCCCCCCN3C(=O)C=CC3=O)CCC12 [U73122] (first compound 0.2 µM, partner dose 0.4 µM)",79%
4,"N#CC[C@H](C1CCCC1)n1cc(-c2ncnc3[nH]ccc23)cn1 [ruxolitinib] + COc1ccc2c(c1)CCC1C2CCC2(C)C(NCCCCCCN3C(=O)C=CC3=O)CCC12 [U73122] (first compound 1 µM, partner dose 0.4 µM)",139%
5,"CCCCCCCCCCCCCCCCCCOP(=O)([O-])OC1CC[N+](C)(C)CC1 [Perifosine] + O=C(O)C(=O)Nc1sc2c(c1C(=O)O)CCNC2 [TCS401] (first compound 0.4 µM, partner dose 1.66667 µM)",24.5%
6,"Cc1cn(-c2cc(NC(=O)c3ccc(C)c(Nc4nccc(-c5cccnc5)n4)c3)cc(C(F)(F)F)c2)cn1 [nilotinib] + COc1cc(N2CCC(N3CCN(C)CC3)CC2)ccc1Nc1ncc(Cl)c(Nc2ccccc2S(=O)(=O)C(C)C)n1 [NVP-TAE684] (first compound 0.2 µM, partner dose 0.08 µM)",85.7%
7,"Cc1ccc(Nc2nccc(N(C)c3ccc4c(C)n(C)nc4c3)n2)cc1S(N)(=O)=O [Pazopanib] + O=C(Nc1ccccc1)c1cc([N+](=O)[O-])ccc1Cl [GW9662] (first compound 0.4 µM, partner dose 2 µM)",81.1%
8,"O=C(Nc1cc(C(F)(F)F)cc(C(F)(F)F)c1)c1cc(Cl)ccc1O + O=C(O)C(=O)Nc1sc2c(c1C(=O)O)CCNC2 [TCS401] (first compound 0.016 µM, partner dose 1.66667 µM)",109%

# Two entries from above, tab-delimited:
row	Structure (SMILES)	cleaved PARP positive nuclei fraction
7	Cc1ccc(Nc2nccc(N(C)c3ccc4c(C)n(C)nc4c3)n2)cc1S(N)(=O)=O [Pazopanib] + O=C(Nc1ccccc1)c1cc([N+](=O)[O-])ccc1Cl [GW9662] (first compound 0.4 µM, partner dose 2 µM)	81.1%
8	O=C(Nc1cc(C(F)(F)F)cc(C(F)(F)F)c1)c1cc(Cl)ccc1O + O=C(O)C(=O)Nc1sc2c(c1C(=O)O)CCNC2 [TCS401] (first compound 0.016 µM, partner dose 1.66667 µM)	109%
